Reference: paper PMC5675994
These are yes or no findings as the source states them, for the method shown. In cells and extracts the contact can be indirect. These calls come from enrichment with a bait or labelling near it, and not all partners need be listed. For some of these results: Tags and fused reporters may be left off the sequences shown. Values belong to the binder of their own block, whether it stands above or below them.

Chains of the proteins cited; added tags and fusions are not shown. Lines headed by an entry give the natural chain unless they say otherwise; changes in a name come on top.
UniProt Q07540: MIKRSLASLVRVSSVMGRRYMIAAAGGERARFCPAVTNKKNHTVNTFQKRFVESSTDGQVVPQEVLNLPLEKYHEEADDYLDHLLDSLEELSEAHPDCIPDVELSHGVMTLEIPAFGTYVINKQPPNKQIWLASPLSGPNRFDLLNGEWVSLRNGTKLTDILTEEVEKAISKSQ

Legend:
[1] = biological target: T1, Nfs1-His6 (S. cerevisiae) (UniProt P25374); experiment: affinity purification with mass spectrometry; Nfs1-His6 held on Ni-NTA superflow agarose from sonicated, cleared lysate of isolated mitochondria of the Gal-Nfs1-His6 yeast strain; 50 mM TrisCl pH 7.5, 80 mM KCl, 10% glycerol, wash 40 mM imidazole, elution 400 mM imidazole; eluate analysed by LC-MS/MS
T1 sequence: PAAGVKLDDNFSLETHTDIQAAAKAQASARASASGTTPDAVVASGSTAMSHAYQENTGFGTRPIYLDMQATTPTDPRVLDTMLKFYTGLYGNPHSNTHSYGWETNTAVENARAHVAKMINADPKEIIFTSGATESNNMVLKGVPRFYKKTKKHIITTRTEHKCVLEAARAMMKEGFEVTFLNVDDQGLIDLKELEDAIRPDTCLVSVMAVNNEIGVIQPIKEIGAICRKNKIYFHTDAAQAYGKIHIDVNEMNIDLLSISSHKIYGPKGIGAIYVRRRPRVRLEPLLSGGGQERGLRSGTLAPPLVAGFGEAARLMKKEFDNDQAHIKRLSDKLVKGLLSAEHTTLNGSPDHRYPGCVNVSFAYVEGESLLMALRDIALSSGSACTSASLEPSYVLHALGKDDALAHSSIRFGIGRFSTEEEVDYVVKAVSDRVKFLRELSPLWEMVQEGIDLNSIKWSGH

[2] = biological target: Yfh1-His6 (S. cerevisiae) (UniProt Q07540); experiment: affinity purification with mass spectrometry; Yfh1-His6 held on Ni-NTA superflow agarose from French-press lysate (108,000xg supernatant) of isolated mitochondria of the Yfh1-His6 yeast strain; 50 mM TrisCl pH 7.5, 80 mM KCl, 10% glycerol, wash 40 mM imidazole with 0.1% Triton X-100, elution 400 mM imidazole; eluate analysed by LC-MS/MS

B1: Potassium-activated aldehyde dehydrogenase, mitochondrial (protein, UniProt P46367 25-519)
chain: SHLPMTVPIKLPNGLEYEQPTGLFINNKFVPSKQNKTFEVINPSTEEEICHIYEGREDDVEEAVQAADRAFSNGSWNGIDPIDRGKALYRLAELIEQDKDVIASIETLDNGKAISSSRGDVDLVINYLKSSAGFADKIDGRMIDTGRTHFSYTKRQPLGVCGQIIPWNFPLLMWAWKIAPALVTGNTVVLKTAESTPLSALYVSKYIPQAGIPPGVINIVSGFGKIVGEAITNHPKIKKVAFTGSTATGRHIYQSAAAGLKKVTLELGGKSPNIVFADAELKKAVQNIILGIYYNSGEVCCAGSRVYVEESIYDKFIEEFKAASESIKVGDPFDESTFQGAQTSQMQLNKILKYVDIGKNEGATLITGGERLGSKGYFIKPTVFGDVKEDMRIVKEEIFGPVVTVTKFKSADEVINMANDSEYGLAAGIHTSNINTALKVADRVNAGTVWINTYNDFHHAVPFGGFNASGLGREMSVDALQNYLQVKAVRAKLDE
binding [1]: binds | binding [2]: binds

B3: Alcohol dehydrogenase 1 (protein, UniProt P00330 1-348)
chain: MSIPETQKGVIFYESHGKLEYKDIPVPKPKANELLINVKYSGVCHTDLHAWHGDWPLPVKLPLVGGHEGAGVVVGMGENVKGWKIGDYAGIKWLNGSCMACEYCELGNESNCPHADLSGYTHDGSFQQYATADAVQAAHIPQGTDLAQVAPILCAGITVYKALKSANLMAGHWVAISGAAGGLGSLAVQYAKAMGYRVLGIDGGEGKEELFRSIGGEVFIDFTKEKDIVGAVLKATDGGAHGVINVSVSEAAIEASTRYVRANGTTVLVGMPAGAKCCSDVFNQVVKSISIVGSYVGNRADTREALDFFARGLVKSPIKVVGLSTLPEIYEKMEKGQIVGRYVVDTSK
binding [1]: binds | binding [2]: binds

B7: C-1-tetrahydrofolate synthase, mitochondrial (protein, UniProt P09440 35-975)
chain: YHILSGRKLAQSIREKANDEIQAIKLKHPNFKPTLKIIQVGARPDSSTYVRMKLKASKDSNVDCIIEKLPAEITEVELLKKISDINDDDSIHGLLIQLPLPRHLDETTITNAVDFKKDVDGFHRYNAGELAKKGGKPYFIPCTPYGCMKLLEEAHVKLDGKNAVVLGRSSIVGNPIASLLKNANATVTVCHSHTRNIAEVVSQADIVIAACGIPQYVKSDWIKEGAVVIDVGINYVPDISKKSGQKLVGDVDFDSVKEKTSYITPVPGGVGPMTVAMLVSNVLLAAKRQFVESEKLPVIKPLPLHLESPVPSDIDISRAQSPKHIKQVAEELGIHSHELELYGHYKAKISPNIFKRLESRENGKYVLVAGITPTPLGEGKSTTTMGLVQALSAHLGKPSIANVRQPSLGPTLGVKGGAAGGGYAQVIPMDEFNLHLTGDIHAISAANNLLAAAIDTRMFHEATQKNDSTFYKRLVPRKKGIRKFTPSMQRRLKRLDIEKEDPDALTPEEVKRFARLNINPDTITIRRVVDINDRMLRQITIGEAATEKGFTRTTGFDITVASELMAILALSKSLHEMKERIGRMVIGADYDNKPVTVEDIGCTGALTALLRDAIKPNLMQTLEGTPVMVHAGPFANISIGASSVIADLMALKLVGSEKNPLNDKNIHEPGYVVTEAGFDFAMGGERFFDIKCRSSGLVPDAVVLVATVRALKSHGGAPNVKPGQSLPKEYTEENIDFVAKGVSNLVKQIENIKTFGIPVVVAINRFETDSQAEIEVIKKAALNAGASHAVTSNHWMEGGKGAVELAHAVVDATKEPKNFNFLYDVNSSIEDKLTSIVQKMYGGAKIEVSPEAQKKIDTYKKQGFGNLPICIAKTQYSLSHDPSLKGVPRGFTFPIRDVRASIGAGYLYALAAEIQTIPGLSTYAGYMAVEVDDDGEIEGLF
binding [1]: binds | binding [2]: binds

B8: Nicotinamide-nucleotide adenylyltransferase 1 (protein, UniProt Q06178 1-401)
chain: MDPTRAPDFKPPSADEELIPPPDPESKIPKSIPIIPYVLADANSSIDAPFNIKRKKKHPKHHHHHHHSRKEGNDKKHQHIPLNQDDFQPLSAEVSSEDDDADFRSKERYGSDSTTESETRGVQKYQIADLEEVPHGIVRQARTLEDYEFPSHRLSKKLLDPNKLPLVIVACGSFSPITYLHLRMFEMALDAISEQTRFEVIGGYYSPVSDNYQKQGLAPSYHRVRMCELACERTSSWLMVDAWESLQPSYTRTAKVLDHFNHEINIKRGGVATVTGEKIGVKIMLLAGGDLIESMGEPNVWADADLHHILGNYGCLIVERTGSDVRSFLLSHDIMYEHRRNILIIKQLIYNDISSTKVRLFIRRAMSVQYLLPNSVIRYIQEHRLYVDQTEPVKQVLGNKE
binding [1]: binds | binding [2]: binds

Next, values leading:

binding [1]: binds | binding [2]: binds
B2: RNA-binding protein SRO9 (protein, UniProt P25567 1-434)
chain: MSAETAAANTATAPVPEVQEQESSKSKQVNLTPAPLPTSSPWKLAPTEIPVSTISIEDLDATRKKKNRTPTPKSSTATKWVPIKASITVSGTKRSGSKNGASNGNSNKSKNNKTAASSTSSSNANRKKKHHQHNAKKQQQMKKDGFESAVGEEDSKDATSQENGQSTQQQQPPHHRNHHHSHHHNSNGPQRRKFHNSNNAGMPQNQGFPPQFKPYQGRNARNNNNNRSKYHNHFHHNQQHPQQPMVKLQQQFYPVQPVLMAINNIARQIEYYFSEENLTVDNYLRSKLSKDGFAPLSLISKFYRVVNMSFGGDTNLILAALREIVANEAATVNVAEGTLAAKEGDNVTGEAKEPSPLDKYFVRSKSWSNWLPETFETEINIEKELVGDALDQFMISLPPVPQQEEESSTELASQEQETKEDSAPVAAGESESSL

binding [1]: binds | binding [2]: binds
B4: Putative transcription factor SEF1 (protein, UniProt P34228 1-1148)
chain: MVKDNRDSDQDQDFSSAHMKRQPEQQQLQQHQFPSKKQRISHHDDSHQINHRPVTSCTHCRQHKIKCDASQNFPHPCSRCEKIGLHCEINPQFRPKKGSQLQLLRQDVDEIKSKLDTLLANDSVFVHLLQQIPMGNSLLNKLNLHPTPTPGTIIPNPDSSPSSGSPTSSAAQRDSKVSVQTYLSREPQLLQANQGSNTNKFKANNEASSHMTLRASSLAQDSKGLVATEPNKLPPLLNDSALPNNSKESLPPALQMAFYKNNSAGNTPNGPFSPIQKTYSPHTTSTTVTTTTNQPPFAATSHVATNNNADRTKTPVVATTTTMPLLPSPHANVDEFVLGDISISIEKANRLHHIFVTRYLPYFPIMYSNNATELYSQSQLLFWTVMLTACLSDPEPTMYCKLSSLIKQLAIETCWIRTPRSTHISQALLILCIWPLPNQKVLDDCSYRFVGLAKSLSYQLGLHRGEFISEFTRTQTSMPNAEKWRTRTWLGIFFAELCWASILGLPPTSQTDYLLEKALSCGDEESEEDNNDSIDNNNNDKRNKKDEPHVESKYKLPGSFRRLLSLANFQAKLSHIIGSSTSSPDGLLEPKYRAETLSILGKELDLLAKTLNFQSDDTVNIYFLYVKLTVCCFAFLPETPPTDQIPYVTEAYLTATKIVTLLNNLLETHQLIELPIYIRQAATFSALILFKLQLTPLLPDKYFDSARQSVVTIHRLYRNQLTAWATSVENDISRTASMLEKLNFVLIMHPEVFVEEDGIISRMRSHLTGSLFYDLVWCVHEARRREMDPEYNKQALEKAAKKRKFSSNGIYNGTSSTGGITDRKLYPLPLYNHISRDDFETVTKTTPSGTTVTTLVPTKNALKQAEKLAKTNNGDSDGSIMEINGIPLSMLGETGSVKFQSLFANTSNSNDYNNNRTLLDASNDISIPSNSIYPVASVPASNNNPQSTKVDYYSNGPSVIPDLSMKRSVSTPVNHFPASVPGLRNHPVGNLSNNVTLGIDHPIPREHSNLQNVTMNYNNQFSNANAIGRSQSSMSHSRTPIASKSNNMTDLHSVVSDPGSSKSTAYPPLSLFSKSNDINSNKTNQRFSTGTNTVTSSNFQTIDNENNVKTPGNKLTDFFQQQSAGWIEGNSSNDDFFGWFDMNMEQGF

binding [1]: binds | binding [2]: binds
B5: mRNA-binding protein PUF3 (protein, UniProt Q07807 1-879)
chain: MEMNMDMDMDMELASIVSSLSALSHSNNNGGQAAAAGIVNGGAAGSQQIGGFRRSSFTTANEVDSEILLLHGSSESSPIFKKTALSVGTAPPFSTNSKKFFGNGGNYYQYRSTDTASLSSASYNNYHTHHTAANLGKNNKVNHLLGQYSASIAGPVYYNGNDNNNSGGEGFFEKFGKSLIDGTRELESQDRPDAVNTQSQFISKSVSNASLDTQNTFEQNVESDKNFNKLNRNTTNSGSLYHSSSNSGSSASLESENAHYPKRNIWNVANTPVFRPSNNPAAVGATNVALPNQQDGPANNNFPPYMNGFPPNQFHQGPHYQNFPNYLIGSPSNFISQMISVQIPANEDTEDSNGKKKKKANRPSSVSSPSSPPNNSPFPFAYPNPMMFMPPPPLSAPQQQQQQQQQQQQEDQQQQQQQENPYIYYPTPNPIPVKMPKDEKTFKKRNNKNHPANNSNNANKQANPYLENSIPTKNTSKKNASSKSNESTANNHKSHSHSHPHSQSLQQQQQTYHRSPLLEQLRNSSSDKNSNSNMSLKDIFGHSLEFCKDQHGSRFIQRELATSPASEKEVIFNEIRDDAIELSNDVFGNYVIQKFFEFGSKIQKNTLVDQFKGNMKQLSLQMYACRVIQKALEYIDSNQRIELVLELSDSVLQMIKDQNGNHVIQKAIETIPIEKLPFILSSLTGHIYHLSTHSYGCRVIQRLLEFGSSEDQESILNELKDFIPYLIQDQYGNYVIQYVLQQDQFTNKEMVDIKQEIIETVANNVVEYSKHKFASNVVEKSILYGSKNQKDLIISKILPRDKNHALNLEDDSPMILMIKDQFANYVIQKLVNVSEGEGKKLIVIAIRAYLDKLNKSNSLGNRHLASVEKLAALVENAEV

binding [1]: binds | binding [2]: binds
B6: Putative pterin-4-alpha-carbinolamine dehydratase (protein, UniProt P38744 1-120)
chain: MHNKIVRIASSALTGGKLLEKLKPLTRWEVQWDPNKTKCLGITREVTFKDYETTWAFLTRVSMRSHLWGHHPLIHTSYTWVKLELHTHDIDPKDGAHSQLSDIDVRMAKRIDSYIDEMTT
